For this experiment, the system named is L1210 leukemia ip in BDF1 mice, survival T/C. As to the kind of experiment: NCI In Vivo Anticancer Drug Screen. Data for tumor model L1210 Leukemia (intraperitoneal) in B6D2F1 (BDF1) mice. Conditions: T/C endpoint: mean survival time, higher T/C = longer survival.
[1] abbreviates: dose: 100.0 mg/kg/injection, schedule: Q01DX009 (ip), vehicle: Klucel (hydroxypropylcellulose) (HPC).
The mark [2] stands for this setting: dose: 200.0 mg/kg/injection, schedule: Q04DX003 (ip), vehicle: Klucel (hydroxypropylcellulose) (HPC).
Where [3] appears, read: dose: 400.0 mg/kg/injection, schedule: Q04DX003 (ip), vehicle: Klucel (hydroxypropylcellulose) (HPC).
The mark [4] stands for this setting: dose: 400.0 mg/kg/injection, schedule: Q01DX009 (ip), vehicle: saline with Tween-80.
Where [5] appears, read: dose: 400.0 mg/kg/injection, schedule: Q01DX001 (ip), vehicle: saline.
Where [6] appears, read: dose: 200.0 mg/kg/injection, schedule: Q01DX009 (ip), vehicle: Klucel (hydroxypropylcellulose) (HPC).
[7] abbreviates: dose: 300.0 mg/kg/injection, schedule: Q01DX001 (ip), vehicle: saline.
The mark [8] stands for this setting: dose: 200.0 mg/kg/injection, schedule: Q04DX003 (ip), vehicle: saline.
Setting [9] is: dose: 400.0 mg/kg/injection, schedule: Q04DX003 (ip), vehicle: saline.
Where [10] appears, read: dose: 50.0 mg/kg/injection, schedule: Q04DX003 (ip), vehicle: Klucel (hydroxypropylcellulose) (HPC).
The mark [11] stands for this setting: dose: 3.13 mg/kg/injection, schedule: Q01DX009 (ip), vehicle: Klucel (hydroxypropylcellulose) (HPC).
[12] abbreviates: dose: 50.0 mg/kg/injection, schedule: Q01DX009 (ip), vehicle: Klucel (hydroxypropylcellulose) (HPC).
Where [13] appears, read: dose: 100.0 mg/kg/injection, schedule: Q04DX003 (ip), vehicle: Klucel (hydroxypropylcellulose) (HPC).

The list does not hold the whole screen: it is rich in T/C values a quarter to a half above the control, in often repeated tests (any T/C) and in doses without a T/C. Other doses and runs of a compound stand elsewhere. T/C gives the treated animals as a percentage of the vehicle group. Some doses have a count of surviving animals in place of a T/C: the source files T/C as zero there, which appears to mark a toxic dose or a test without result, not a measured value. Some doses without a T/C left all or most animals alive at the check, yet need not have been tolerated: survival well below the control is almost never listed, so the zero probably covers shortened survival too. Counts of survivors are from the toxicity check (mostly the fifth day) where no day follows; animals may have died later. Schedules are NCI's codes, read here as Q, the interval in days (D) or hours (H), X, the number of doses. Some schedules carry Z or #; the key to these is not given. Some doses were run more than once; their values stand side by side, smallest first. For survival time, the PubChem record calls one and a half times the control and up active, and a quarter to a half above the control has no call in these data; cut-offs in other NCI protocols can differ.

Turning to `CC(=O)CC(=O)Nc1cc(Cl)ccc1C`, the survivor count by setting is: under setting [1], 5 of 6; (dose: 400.0 mg/kg/injection, schedule: Q01DX009 (ip), vehicle: Klucel (hydroxypropylcellulose) (HPC)) 4 of 6.

In the case of `CC(=C(C#N)C#N)c1ccc(Cl)cc1`, the survivor count is given as 2 of 6 under setting [2] and 0 of 6 under setting [3].

Take `CC1CCCCC12OCCO2` (stereo not drawn): under setting [4], the survivor count is listed as 3 of 6.

`CN(NCc1ccccc1)C(=N)N`: the survivor count (dose: 200.0 mg/kg/injection, schedule: Q01DX001 (ip), vehicle: saline) was 1 of 6 and the survivor count under setting [5] is on record as 0 of 6.

`CCCC(=O)CC(C)=O.CCCC(=O)CC(C)=O.[Cu]`: the survivor count is recorded as 1 of 6 (dose: 25.0 mg/kg/injection, schedule: Q01DX009 (ip), vehicle: Klucel (hydroxypropylcellulose) (HPC)); 3 of 6 (dose: 40.0 mg/kg/injection, schedule: Q04DX003 (ip), vehicle: Klucel (hydroxypropylcellulose) (HPC)); 0 of 6 (dose: 80.0 mg/kg/injection, schedule: Q04DX003 (ip), vehicle: Klucel (hydroxypropylcellulose) (HPC)); 0 of 6 (dose: 160.0 mg/kg/injection, schedule: Q04DX003 (ip), vehicle: Klucel (hydroxypropylcellulose) (HPC)).

`COc1cc(/C=c2\[nH]c(=O)/c(=C/c3cc(OC)c(OC)c(OC)c3)[nH]c2=O)cc(OC)c1OC`: the survivor count under setting [6] was 6 of 6.

Regarding `CCCCN(CC)CCNc1cc(C)nc(/N=C(\N)Nc2ccc(Cl)c(Cl)c2)n1`, the survivor count was 3 of 6 (dose: 75.0 mg/kg/injection, schedule: Q01DX001 (ip), vehicle: other); 1 of 6 (dose: 75.0 mg/kg/injection, schedule: Q01DX009 (ip), vehicle: Klucel (hydroxypropylcellulose) (HPC)); 0 of 6 (dose: 150.0 mg/kg/injection, schedule: Q01DX001 (ip), vehicle: other); 0 of 6 (dose: 300.0 mg/kg/injection, schedule: Q01DX001 (ip), vehicle: other).

Consider `C(C[P+](c1ccccc1)(c1ccccc1)c1ccccc1)=C(c1ccccc1)c1ccccc1`, for which the survivor count (dose: 20.0 mg/kg/injection, schedule: Q01DX001 (ip), vehicle: saline) was 3 of 6; the survivor count (dose: 75.0 mg/kg/injection, schedule: Q01DX001 (ip), vehicle: saline) is reported as 0 of 6; the survivor count (dose: 150.0 mg/kg/injection, schedule: Q01DX001 (ip), vehicle: saline) is listed as 0 of 6; the survivor count under setting [7] was 1 of 6.

Consider `CN(C)c1ccc(N=Cc2cc[n+](C)cc2)cc1`, for which the survivor count was 3 of 6 (dose: 100.0 mg/kg/injection, schedule: Q01DX009 (ip), vehicle: saline); 0 of 6 under setting [8]; 0 of 6 under setting [9].

With `Cc1cc(SCC(=O)c2ccc(Br)cc2)cc(C)[o+]1`, the survivor count under setting [9] is listed as 3 of 6.

With `CCOP(=O)(NCCc1ccccc1)OCC`, the survivor count (dose: 400.0 mg/kg/injection, schedule: Q01DX001 (ip), vehicle: carboxymethylcellulose (CMC)) is 0 of 4.

As to `CC(=O)c1cccc(NC(=O)Nc2nccs2)c1`, the survivor count under setting [6] is 3 of 3 and the survivor count (dose: 400.0 mg/kg/injection, schedule: Q04DX002 (ip), vehicle: Klucel (hydroxypropylcellulose) (HPC)) is 3 of 3.

Regarding `C1CCC(C2CCC(N3CCCCC3)CC2)CC1` (stereo not drawn), the survivor count (dose: 100.0 mg/kg/injection, schedule: Q01DX001 (ip), vehicle: saline) was 0 of 4.

For the compound `O=C(O)c1cc([N+](=O)[O-])cs1`, under setting [5], the survivor count was 2 of 4.

Consider `CN(C(N)=O)c1c(O)nc(N)[nH]c1=O`, for which the survivor count is on record as 6 of 6 (dose: 100.0 mg/kg/injection, schedule: Q04DX003 (ip), vehicle: water); 3 of 6 (dose: 200.0 mg/kg/injection, schedule: Q04DX003 (ip), vehicle: water); 4 of 6 (dose: 400.0 mg/kg/injection, schedule: Q04DX003 (ip), vehicle: water).

In the case of `Cc1nnc2c3ccccc3ccn12`, the survivor count under setting [5] was 0 of 4.

For the compound `O=C(Cc1ccc(CC(=O)NO)cc1)NO`, the survivor count under setting [7] was 3 of 6.

As for `CCOC(=O)NCC(C)(CCN1CCCCC1)c1cccc2ccccc12` (stereo not drawn), the survivor count by setting is: (dose: 200.0 mg/kg/injection, schedule: Q01DX009 (ip), vehicle: saline with Tween-80) 0 of 6; under setting [4], 0 of 6.

Regarding `O=C(NCCCl)Nc1ccc2c3c1CCCC3CC2` (stereo not drawn), the survivor count under setting [3] is on record as 5 of 6.

As for `Cc1nc(-c2ccc(N=Cc3ccc(N(CCOS(C)(=O)=O)CCOS(C)(=O)=O)cc3)cc2)cs1`, the T/C runs as follows: (dose: 33.0 mg/kg/injection, schedule: Q04DX003 (ip), vehicle: Klucel (hydroxypropylcellulose) (HPC)) 142 % of control; under setting [10], 140 and 148 % of control; (dose: 75.0 mg/kg/injection, schedule: Q04DX003 (ip), vehicle: Klucel (hydroxypropylcellulose) (HPC)) 137 % of control. Also, the survivor count under setting [3] is on record as 1 of 6.

In the case of `Clc1ccccc1/C=C/C=C1c2ccccc2-c2ccccc21`, the survivor count under setting [8] is 4 of 6.

For `O=C(Nc1cccc2ccccc12)OCc1ccco1`, the survivor count (dose: 400.0 mg/kg/injection, schedule: Q04DX002 (ip), vehicle: saline with Tween-80) is 6 of 6.

In the case of `Cc1cc(C)nc(NS(=O)(=O)c2ccc(N=Nc3nc4[nH]c(N)nc(=S)c4[nH]3)cc2)n1`, the T/C under setting [11] was 144 % of control; the T/C (dose: 6.25 mg/kg/injection, schedule: Q01DX009 (ip), vehicle: Klucel (hydroxypropylcellulose) (HPC)) is 145 % of control; the T/C (dose: 12.5 mg/kg/injection, schedule: Q01DX009 (ip), vehicle: Klucel (hydroxypropylcellulose) (HPC)) was 143 and 144 % of control; the T/C under setting [12] is 134 % of control; the T/C under setting [10] was 139 and 143 % of control; the T/C under setting [1] was 136 % of control. Moreover, the T/C runs as follows: under setting [13], 139 and 141 % of control; under setting [2], 135 and 138 % of control. Moreover, the survivor count was 3 of 6 under setting [11]; 6 of 6 under setting [12]; 6 of 6 under setting [1]; 6 of 6 under setting [13]; 4 of 6 under setting [6]; 2 of 6 under setting [2]. Moreover, the survivor count under setting [3] was 1 of 6.

In the case of `CC[n+]1c(C=Nc2ccc(N(C)C)cc2)sc2ccccc21`, the survivor count reads like this: (dose: 25.0 mg/kg/injection, schedule: Q04DX003 (ip), vehicle: carboxymethylcellulose (CMC)) 1 of 6; (dose: 50.0 mg/kg/injection, schedule: Q04DX002 (ip), vehicle: carboxymethylcellulose (CMC)) 0 of 3 and 0 of 6; (dose: 50.0 mg/kg/injection, schedule: Q04DX003 (ip), vehicle: carboxymethylcellulose (CMC)) 0 of 6; (dose: 100.0 mg/kg/injection, schedule: Q04DX002 (ip), vehicle: carboxymethylcellulose (CMC)) 0 of 6; (dose: 200.0 mg/kg/injection, schedule: Q04DX002 (ip), vehicle: carboxymethylcellulose (CMC)) 0 of 6; (dose: 400.0 mg/kg/injection, schedule: Q04DX002 (ip), vehicle: carboxymethylcellulose (CMC)) 0 of 6.

For `NC(N)=N/N=C(/CCC(=O)O)C(=O)O`, the T/C is, setting by setting: (dose: 120.0 mg/kg/injection, schedule: Q01DX Z (oral), vehicle: carboxymethylcellulose (CMC)) 130 % of control; (dose: 240.0 mg/kg/injection, schedule: Q01DX Z (oral), vehicle: carboxymethylcellulose (CMC)) 129 % of control; (dose: 480.0 mg/kg/injection, schedule: Q01DX Z (oral), vehicle: carboxymethylcellulose (CMC)) 129 % of control. Besides, where the note is “dose: 480.0 mg/kg/injection, schedule: Q01DX Z (ip), vehicle: carboxymethylcellulose (CMC)”, the survivor count was 6 of 6.
